Results reported in the supplement of paper PMC3334620.
Whole data set: some 33,000 sequences, median “E-score (-0.5 to 0.5)” near -0.016, cut for the highest 2% near 0.3. The list shows a part of the results.

target: T1, Yer184c (UniProt P39961); test: PBM E-score (8-mer binding enrichment) (E-score (-0.5 to 0.5)); higher = stronger / more preferred TF binding; conditions: protein concentration: 100 nM; construct: GST-full length
T1 sequence: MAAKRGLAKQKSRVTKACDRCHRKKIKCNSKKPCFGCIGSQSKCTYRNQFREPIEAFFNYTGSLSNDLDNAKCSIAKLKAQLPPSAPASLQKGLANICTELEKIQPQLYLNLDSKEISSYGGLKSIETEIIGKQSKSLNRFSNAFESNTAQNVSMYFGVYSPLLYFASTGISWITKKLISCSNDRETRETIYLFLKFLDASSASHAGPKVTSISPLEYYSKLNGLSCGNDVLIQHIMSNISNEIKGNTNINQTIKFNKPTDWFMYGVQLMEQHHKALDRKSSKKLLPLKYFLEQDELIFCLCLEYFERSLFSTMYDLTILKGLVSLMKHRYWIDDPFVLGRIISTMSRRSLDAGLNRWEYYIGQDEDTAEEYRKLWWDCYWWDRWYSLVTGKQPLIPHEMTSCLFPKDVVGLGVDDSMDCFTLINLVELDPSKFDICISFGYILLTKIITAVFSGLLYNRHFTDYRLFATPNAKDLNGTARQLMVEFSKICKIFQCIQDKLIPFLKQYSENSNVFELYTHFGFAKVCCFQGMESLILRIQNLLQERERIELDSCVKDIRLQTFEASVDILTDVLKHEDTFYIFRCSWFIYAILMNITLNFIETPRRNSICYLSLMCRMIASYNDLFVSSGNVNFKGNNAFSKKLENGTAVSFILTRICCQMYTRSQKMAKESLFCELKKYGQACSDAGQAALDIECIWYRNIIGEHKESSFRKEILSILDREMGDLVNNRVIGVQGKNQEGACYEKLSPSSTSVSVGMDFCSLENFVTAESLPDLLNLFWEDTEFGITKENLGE
Method in brief: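 Yeast transcription factors carrying a GST tag, as full-length proteins or DNA-binding domains, were produced by PURExpress in vitro transcription/translation. About 100-200 nM protein was applied to universal all-10-mer Agilent arrays, double-stranded by primer extension on fresh or once-stripped slides. Bound protein was detected with fluorescent anti-GST, and scans were normalised with masliner. The Universal PBM Analysis Suite gave each ungapped eight-base word, pooled with its reverse complement, an E-score, a modified Wilcoxon-Mann-Whitney statistic.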

Row | Sequence | PBM E-score
1 | AGTTCTAC | -0.0807
2 | CCACCGCC | -0.229
3 | ATTTGGCA | 0.0517
4 | GAGACTCA | 0.023
5 | GCCTGTTA | -0.218
6 | AGATGAAG | -0.19
7 | GGCAACCA | 0.087
8 | ACTCATGG | -0.11
9 | AGGGGCTG | -0.216
10 | ATTTCTTC | 0.315
11 | CGGTAATC | 0.108
12 | CTATCCTA | -0.00403
13 | ATGGTTAG | 0.0958
14 | CTCCACAC | -0.126
15 | AGCATCCA | -0.134
16 | GCAAATCC | 0.203
17 | CTGCAAAG | -0.0274
18 | GGGGAGCA | -0.332
19 | AACCGGAG | 0.358
20 | GCCGCCAC | -0.273
21 | CTGCTTAA | 0.0504
22 | CCAGTTAG | -0.245

2 entries picked at random from those above:
Row | Sequence | PBM E-score
21 | CTGCTTAA | 0.0504
20 | GCCGCCAC | -0.273

Continuation:

Row | Sequence | PBM E-score
23 | CTGCCCAG | -0.0831
24 | CAGCTAAG | -0.136
25 | CTGAAGTA | 0.0194
26 | ACAACGTG | -0.174
27 | GGCTAGAC | -0.126
28 | CGGCAACG | 0.247
29 | AAGCTTGT | 0.0388
30 | GCCGTCAA | -0.0832
31 | CCTGATCC | -0.105
32 | CGAGCTTA | 0.0634
33 | AAGGTTTG | 0.066
34 | AGCGACAA | -0.146
35 | CTTCTGCC | -0.0395
36 | GTTTGGCA | 0.0335
37 | TATGGCAA | -0.0375
38 | CTGGAGCA | -0.301
39 | GACGGCTC | -0.119
40 | CCTATCTC | -0.0616
41 | AAATACCC | 0.127
42 | ATGCCTGC | -0.177
43 | CTACGTAA | -0.0499
44 | ATGGAGGC | -0.209

Another view of some results above.
Row	Sequence	PBM E-score
22	CCAGTTAG	-0.245
23	CTGCCCAG	-0.0831
24	CAGCTAAG	-0.136
25	CTGAAGTA	0.0194
26	ACAACGTG	-0.174
27	GGCTAGAC	-0.126
28	CGGCAACG	0.247
29	AAGCTTGT	0.0388
30	GCCGTCAA	-0.0832
31	CCTGATCC	-0.105
32	CGAGCTTA	0.0634
33	AAGGTTTG	0.066
34	AGCGACAA	-0.146
35	CTTCTGCC	-0.0395
36	GTTTGGCA	0.0335
37	TATGGCAA	-0.0375
38	CTGGAGCA	-0.301
39	GACGGCTC	-0.119
40	CCTATCTC	-0.0616
41	AAATACCC	0.127
42	ATGCCTGC	-0.177
43	CTACGTAA	-0.0499
44	ATGGAGGC	-0.209

(cont.)

Row | Sequence | PBM E-score
45 | CATACAGA | 0.108
46 | AAGTTCGA | 0.185
47 | CTGTACGC | -0.0756
48 | GCCGAAAA | 0.439
49 | AGTCAACT | -0.179
50 | CTAGTGCA | 0.0792
51 | ACAAATTC | 0.0749
52 | CAATCGGC | 0.217
53 | CCAAGCTC | 0.00361
54 | CACAATAA | 0.00019
55 | CAGTATTC | 0.13
56 | GCCAAACA | -0.00926
57 | TGTGCCAA | 0.0933
58 | CCTGACAG | -0.0423
59 | GCCGCACC | 0.0459
60 | GCTCGGCC | 0.207
61 | GCAAAGCA | -0.0276
62 | CTATCGAC | -0.269
63 | ACAGTACT | -0.0797
64 | CTCCCGTC | 0.131
65 | AGGGCTCA | -0.199
66 | AATCGGGA | 0.0709

Row | Sequence | PBM E-score
67 | CATTTTAG | 0.239
68 | CGCTCCAC | -0.101
69 | ACAGCCTC | -0.212
70 | TCTTTACA | 0.122
71 | TAGAGCAA | -0.18
72 | ATTCGAAG | -0.0322
73 | ATGGCATG | 0.104
74 | AGCTAAAA | 0.168
75 | GGTCGAAA | -0.168
76 | GACCCTAC | -0.12
77 | AAGGCTGT | -0.102
78 | AGGGCCTC | -0.254
79 | CGCGGTAA | 0.287
80 | GGTACTCA | -0.086
81 | ATAGCGAT | -0.163
82 | CCCTTCAC | -0.184
83 | GGTTCGTA | 0.076
84 | CTGCCGTA | -0.00407
85 | GCACCATA | -0.142
86 | CTTTTGTC | 0.0547
